The source of these data is PMC6588558.

Protein sequences, listed by entry. Tags and fused reporters are not part of them. Residues count along the entry.
UniProt P02768, residues 25-609: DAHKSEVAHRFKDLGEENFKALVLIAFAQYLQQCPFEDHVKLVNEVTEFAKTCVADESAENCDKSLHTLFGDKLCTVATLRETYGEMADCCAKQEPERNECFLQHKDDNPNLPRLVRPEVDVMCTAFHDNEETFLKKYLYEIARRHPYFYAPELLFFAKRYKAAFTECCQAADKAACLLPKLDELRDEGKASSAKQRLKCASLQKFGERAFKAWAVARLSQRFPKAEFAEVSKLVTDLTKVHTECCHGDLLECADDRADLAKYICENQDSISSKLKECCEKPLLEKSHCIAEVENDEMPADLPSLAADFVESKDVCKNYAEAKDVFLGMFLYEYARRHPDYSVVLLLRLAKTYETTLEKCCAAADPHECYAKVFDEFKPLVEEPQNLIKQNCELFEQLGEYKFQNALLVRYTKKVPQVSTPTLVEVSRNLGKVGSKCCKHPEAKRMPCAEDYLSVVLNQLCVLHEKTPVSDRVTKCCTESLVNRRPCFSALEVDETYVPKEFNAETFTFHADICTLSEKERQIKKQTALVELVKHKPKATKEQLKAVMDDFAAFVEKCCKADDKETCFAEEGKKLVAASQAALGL

This assay concerns the target M1 protein (S. pyogenes) (UniProt Q99XV0). Kind of assay: affinity purification with mass spectrometry; AP-DIA: 10 μg affinity-tagged bait on Strep-Tactin Sepharose beads, pooled normal human plasma (100 μl) or saliva (200 μl), 37 °C, 1 h, washed with ice-cold PBS, eluted with biotin; DIA-MS; sfGFP as negative control; only the target purified.

No constants are given. Whether binding was seen depends on the method and setting. Binding seen in cells or lysates may run through a third protein. A yes stands for co-enrichment or nearness to the bait. Other partners may have been found.

“human serum albumin (of plasma) (from UniProt P02768 25-609)”: the binding result is “binds”.
